# Source: PubChem BioAssay AID1224828 (NIAID, 2016)
# Screen: 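Regulators linking TLR4 signalling to p65 nuclear translocation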 (primary screen)
# System: mouse RAW264.7 G9 macrophage reporter cells (GFP-p65, Tnf promoter-mCherry)
# Reagent: siRNA pool against mouse genes, 100 nM
# Time to read-out: 2 days siRNA transfection, then 40 min LPS before fixation
# Conditions: LPS (Salmonella minnesota R595) at 10 ng/ml
# Measured: 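Microscopy ratio of nuclear to perinuclear-ring GFP-p65 signal, scaled to the plate median; gene score is the average of two replicate robust z-scores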
# Scale: p65 translocation robust z-score: higher = more nuclear NF-kappaB p65 after LPS than the plate median; nuclear/cytoplasmic p65 ratio: higher = more nuclear NF-kappaB p65
# Hit rule: 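Called active when z exceeds 3.3 or falls under -1.56 (median of Tlr4 controls), giving activity score of at least 50; no calls for control wells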
# Calls: active = hit (p65 shift raised or lowered); inactive = no clear change
# The deposit covers about 17,000 reagents; below is a random part of them. 762 of all reagents (4.5%) were called active. 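Active calls include both raised and lowered p65 entry, mostly lowered; wells with fewer than 50 cells lack a z-score.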 Raw values vary from plate to plate and are shown uncorrected.
Gene,p65 translocation robust z-score,"nuclear/cytoplasmic p65 ratio, rep 1","nuclear/cytoplasmic p65 ratio, rep 2",low cell count flag,Call
Ankrd6 (GeneID 140577),0.81,1.67,1.87,enough cells to score,inactive
Chd4 (GeneID 107932),-1.78,1.37,1.15,enough cells to score,active
Btla (GeneID 208154),1.68,1.62,1.8,enough cells to score,inactive
Zfp788 (GeneID 67607),,1.28,1.02,fewer than 50 cells per well; well left out of scoring,inactive
Triobp (GeneID 110253),-0.23,1.4,1.17,enough cells to score,inactive
Tnfsf9 (GeneID 21950),,0,1.3,fewer than 50 cells per well; well left out of scoring,inactive
Tph2 (GeneID 216343),,1.24,1.15,fewer than 50 cells per well; well left out of scoring,inactive
Cyp2c37 (GeneID 13096),-1.44,1.3,1.17,enough cells to score,inactive
Nxph3 (GeneID 104079),-0.35,1.65,1.49,enough cells to score,inactive
Or5k15 (GeneID 258999),1.54,1.84,1.74,enough cells to score,inactive
Cd53 (GeneID 12508),0.27,1.52,1.41,enough cells to score,inactive
Foxd4 (GeneID 14237),0.06,1.62,1.45,enough cells to score,inactive
Blcap (GeneID 53619),0.34,1.74,1.6,enough cells to score,inactive
Epb42 (GeneID 13828),-0.98,1.41,1.23,enough cells to score,inactive
Lrrc41 (GeneID 230654),2.53,1.87,1.98,enough cells to score,inactive
Lmntd1 (GeneID 74071),,1.31,1.35,fewer than 50 cells per well; well left out of scoring,inactive
Rassf4 (GeneID 213391),-0.28,1.39,1.14,enough cells to score,inactive
Ftl1 (GeneID 14325),0.36,1.72,1.44,enough cells to score,inactive
Wdr41 (GeneID 218460),0.46,1.62,1.95,enough cells to score,inactive
Taok1 (GeneID 216965),,1.18,1.14,fewer than 50 cells per well; well left out of scoring,inactive
Sirt3 (GeneID 64384),-0.47,1.37,1.18,enough cells to score,inactive
Fermt3 (GeneID 108101),0.14,1.61,1.86,enough cells to score,inactive
Frzb (GeneID 20378),-0.68,1.31,1.32,enough cells to score,inactive
Crym (GeneID 12971),0.09,1.54,1.34,enough cells to score,inactive
Nfx1 (GeneID 74164),1.42,1.7,1.55,enough cells to score,inactive
Gsc (GeneID 14836),-1.19,1.39,1.44,enough cells to score,inactive
St8sia3 (GeneID 20451),,1.61,1.25,fewer than 50 cells per well; well left out of scoring,inactive
Or4k40 (GeneID 277562),-0.1,1.62,1.39,enough cells to score,inactive
Dnase2b (GeneID 56629),-0.07,1.45,1.36,enough cells to score,inactive
Mr1 (GeneID 15064),-0.39,1.74,1.51,enough cells to score,inactive
Gpam (GeneID 14732),-0.24,1.39,1.72,enough cells to score,inactive
Or10g7 (GeneID 259109),,1.33,1.26,fewer than 50 cells per well; well left out of scoring,inactive
Or8b39 (GeneID 258415),0.12,1.61,1.28,enough cells to score,inactive
Rrh (GeneID 20132),-0.13,1.46,1.6,enough cells to score,inactive
Mtf2 (GeneID 17765),-0.57,1.3,1.33,enough cells to score,inactive
Or7g27 (GeneID 258249),0.9,1.46,1.37,enough cells to score,inactive
Ccl8 (GeneID 20307),-1.06,1.37,1.24,enough cells to score,inactive
Ankrd7 (GeneID 75196),-0.67,1.55,1.47,enough cells to score,inactive
Mcptl (GeneID 17233),-0.45,1.67,1.46,enough cells to score,inactive
Or8g18 (GeneID 257959),,1.16,1.37,fewer than 50 cells per well; well left out of scoring,inactive
Bpifb5 (GeneID 228802),-0.07,1.54,1.83,enough cells to score,inactive
Strm (GeneID 100504617),-0.29,1.41,1.2,enough cells to score,inactive
Gh (GeneID 14599),-0.17,1.48,1.52,enough cells to score,inactive
Dusp26 (GeneID 66959),0.45,1.67,1.7,enough cells to score,inactive
Aqr (GeneID 11834),,1.27,2.09,fewer than 50 cells per well; well left out of scoring,inactive
Prrx1 (GeneID 18933),1.02,1.66,1.52,enough cells to score,inactive
Mrpl20 (GeneID 66448),0.94,1.94,1.73,enough cells to score,inactive
Slc11a2 (GeneID 18174),0.72,1.56,1.68,enough cells to score,inactive
Utp4 (GeneID 21771),-0.88,1.36,1.43,enough cells to score,inactive
Pbx3 (GeneID 18516),-0.88,1.28,1.34,enough cells to score,inactive
Olfm5 (GeneID 244180),,1.25,1.36,fewer than 50 cells per well; well left out of scoring,inactive
Abca9 (GeneID 217262),0.84,1.76,1.79,enough cells to score,inactive
Or4a73 (GeneID 258788),1.94,1.9,1.6,enough cells to score,inactive
Acaa1a (GeneID 113868),-0.32,1.52,1.61,enough cells to score,inactive
Art4 (GeneID 109978),0.43,1.65,1.72,enough cells to score,inactive
Fam199x (GeneID 245622),0.77,1.66,2.01,enough cells to score,inactive
Dcn (GeneID 13179),0.18,1.44,1.43,enough cells to score,inactive
Prdm16 (GeneID 70673),1.11,1.81,1.41,enough cells to score,inactive
Tmem229a (GeneID 319832),0.55,1.38,1.59,enough cells to score,inactive

Copied from the list.
Slc11a2 (GeneID 18174), nuclear/cytoplasmic p65 ratio, rep 1 = 1.56
Result of Acaa1a (GeneID 113868) in “nuclear/cytoplasmic p65 ratio, rep 2”: 1.61
Value for Or7g27 (GeneID 258249) under “Call”: inactive
Entry for Aqr (GeneID 11834) under “low cell count flag”: fewer than 50 cells per well; well left out of scoring
Under “p65 translocation robust z-score”, Bpifb5 (GeneID 228802) has -0.07
Result for Cyp2c37 (GeneID 13096) in “low cell count flag”: enough cells to score
